Experimental data from the supplement of paper PMC6411743.
± gives the standard deviation of the averaged measurements. The list shows a part of the results, in another mix than the full data.

Chains of the proteins cited; added tags and fusions are not shown. Lines headed by an entry give the natural chain unless they say otherwise; changes in a name come on top.
UniProt Q8WVK2: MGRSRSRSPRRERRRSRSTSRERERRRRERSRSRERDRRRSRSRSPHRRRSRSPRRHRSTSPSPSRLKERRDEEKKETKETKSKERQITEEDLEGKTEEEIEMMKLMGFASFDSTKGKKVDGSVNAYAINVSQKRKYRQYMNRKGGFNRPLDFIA
UniProt Q8TEA1: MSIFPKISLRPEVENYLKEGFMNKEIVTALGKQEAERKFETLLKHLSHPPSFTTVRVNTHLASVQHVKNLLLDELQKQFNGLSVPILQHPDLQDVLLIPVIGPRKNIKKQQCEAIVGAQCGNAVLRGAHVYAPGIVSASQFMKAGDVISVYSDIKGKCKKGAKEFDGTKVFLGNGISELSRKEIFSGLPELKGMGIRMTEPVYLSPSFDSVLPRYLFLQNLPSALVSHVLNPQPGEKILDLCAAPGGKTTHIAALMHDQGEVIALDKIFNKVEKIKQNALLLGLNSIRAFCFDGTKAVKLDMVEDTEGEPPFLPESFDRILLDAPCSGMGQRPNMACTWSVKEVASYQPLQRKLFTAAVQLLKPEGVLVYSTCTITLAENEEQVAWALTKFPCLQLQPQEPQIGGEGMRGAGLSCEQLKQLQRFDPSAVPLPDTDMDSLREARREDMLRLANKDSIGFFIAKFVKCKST
UniProt Q969R8: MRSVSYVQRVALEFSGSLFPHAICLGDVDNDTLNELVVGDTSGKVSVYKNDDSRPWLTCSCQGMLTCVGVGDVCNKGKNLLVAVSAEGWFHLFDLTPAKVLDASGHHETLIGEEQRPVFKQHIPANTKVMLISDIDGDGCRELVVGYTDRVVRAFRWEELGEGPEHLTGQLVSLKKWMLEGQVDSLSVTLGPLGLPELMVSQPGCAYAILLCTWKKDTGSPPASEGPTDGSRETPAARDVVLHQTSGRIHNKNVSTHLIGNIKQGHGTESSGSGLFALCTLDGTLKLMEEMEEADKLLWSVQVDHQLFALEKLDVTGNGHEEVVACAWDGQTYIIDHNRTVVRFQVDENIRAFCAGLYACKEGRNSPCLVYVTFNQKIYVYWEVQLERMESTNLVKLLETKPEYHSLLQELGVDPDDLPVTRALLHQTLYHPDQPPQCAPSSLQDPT
UniProt Q92608: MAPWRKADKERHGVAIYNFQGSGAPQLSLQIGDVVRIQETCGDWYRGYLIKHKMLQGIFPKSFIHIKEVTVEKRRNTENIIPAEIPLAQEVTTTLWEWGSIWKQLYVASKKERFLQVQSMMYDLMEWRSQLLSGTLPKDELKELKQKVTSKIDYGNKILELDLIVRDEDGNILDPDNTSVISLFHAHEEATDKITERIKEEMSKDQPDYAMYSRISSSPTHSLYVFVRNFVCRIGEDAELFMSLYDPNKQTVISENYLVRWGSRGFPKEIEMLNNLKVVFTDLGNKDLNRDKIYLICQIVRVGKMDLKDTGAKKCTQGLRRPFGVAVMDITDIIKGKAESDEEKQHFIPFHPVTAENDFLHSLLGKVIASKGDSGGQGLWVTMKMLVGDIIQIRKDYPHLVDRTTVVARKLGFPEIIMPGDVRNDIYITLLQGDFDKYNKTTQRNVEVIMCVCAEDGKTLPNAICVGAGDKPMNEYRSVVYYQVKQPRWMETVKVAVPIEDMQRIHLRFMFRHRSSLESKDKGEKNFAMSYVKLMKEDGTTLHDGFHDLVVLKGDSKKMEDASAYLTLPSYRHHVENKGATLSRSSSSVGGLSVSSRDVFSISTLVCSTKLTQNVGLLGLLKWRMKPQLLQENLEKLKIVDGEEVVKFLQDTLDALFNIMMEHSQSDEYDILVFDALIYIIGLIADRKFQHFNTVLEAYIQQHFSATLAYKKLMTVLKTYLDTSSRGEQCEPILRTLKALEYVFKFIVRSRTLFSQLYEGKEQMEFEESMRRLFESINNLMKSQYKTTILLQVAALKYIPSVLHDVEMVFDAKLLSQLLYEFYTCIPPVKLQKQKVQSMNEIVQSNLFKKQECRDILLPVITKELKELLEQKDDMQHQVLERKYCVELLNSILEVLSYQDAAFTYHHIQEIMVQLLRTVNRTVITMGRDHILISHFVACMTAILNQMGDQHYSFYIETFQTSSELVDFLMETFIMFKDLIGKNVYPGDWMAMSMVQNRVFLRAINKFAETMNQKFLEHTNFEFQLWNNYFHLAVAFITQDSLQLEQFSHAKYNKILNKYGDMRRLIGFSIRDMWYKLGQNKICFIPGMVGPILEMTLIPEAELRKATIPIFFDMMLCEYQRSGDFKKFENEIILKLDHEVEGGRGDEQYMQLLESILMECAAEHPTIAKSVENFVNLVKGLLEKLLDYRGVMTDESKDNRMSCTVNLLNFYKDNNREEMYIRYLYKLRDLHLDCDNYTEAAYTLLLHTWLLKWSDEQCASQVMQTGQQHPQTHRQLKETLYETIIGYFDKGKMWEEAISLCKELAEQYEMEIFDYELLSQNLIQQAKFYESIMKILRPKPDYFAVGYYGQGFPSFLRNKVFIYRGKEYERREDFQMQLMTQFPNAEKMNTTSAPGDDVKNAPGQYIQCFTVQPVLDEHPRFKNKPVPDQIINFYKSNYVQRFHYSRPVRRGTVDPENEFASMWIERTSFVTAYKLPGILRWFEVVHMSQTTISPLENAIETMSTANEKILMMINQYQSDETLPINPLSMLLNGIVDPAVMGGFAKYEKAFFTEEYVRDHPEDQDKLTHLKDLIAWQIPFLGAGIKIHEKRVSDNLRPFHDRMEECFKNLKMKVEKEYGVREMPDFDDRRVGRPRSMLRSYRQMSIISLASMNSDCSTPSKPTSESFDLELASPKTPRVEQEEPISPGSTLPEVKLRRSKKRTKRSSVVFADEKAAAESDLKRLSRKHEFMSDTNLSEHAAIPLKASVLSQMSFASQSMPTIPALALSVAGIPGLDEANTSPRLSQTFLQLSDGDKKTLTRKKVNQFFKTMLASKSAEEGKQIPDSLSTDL
UniProt Q8TDZ2: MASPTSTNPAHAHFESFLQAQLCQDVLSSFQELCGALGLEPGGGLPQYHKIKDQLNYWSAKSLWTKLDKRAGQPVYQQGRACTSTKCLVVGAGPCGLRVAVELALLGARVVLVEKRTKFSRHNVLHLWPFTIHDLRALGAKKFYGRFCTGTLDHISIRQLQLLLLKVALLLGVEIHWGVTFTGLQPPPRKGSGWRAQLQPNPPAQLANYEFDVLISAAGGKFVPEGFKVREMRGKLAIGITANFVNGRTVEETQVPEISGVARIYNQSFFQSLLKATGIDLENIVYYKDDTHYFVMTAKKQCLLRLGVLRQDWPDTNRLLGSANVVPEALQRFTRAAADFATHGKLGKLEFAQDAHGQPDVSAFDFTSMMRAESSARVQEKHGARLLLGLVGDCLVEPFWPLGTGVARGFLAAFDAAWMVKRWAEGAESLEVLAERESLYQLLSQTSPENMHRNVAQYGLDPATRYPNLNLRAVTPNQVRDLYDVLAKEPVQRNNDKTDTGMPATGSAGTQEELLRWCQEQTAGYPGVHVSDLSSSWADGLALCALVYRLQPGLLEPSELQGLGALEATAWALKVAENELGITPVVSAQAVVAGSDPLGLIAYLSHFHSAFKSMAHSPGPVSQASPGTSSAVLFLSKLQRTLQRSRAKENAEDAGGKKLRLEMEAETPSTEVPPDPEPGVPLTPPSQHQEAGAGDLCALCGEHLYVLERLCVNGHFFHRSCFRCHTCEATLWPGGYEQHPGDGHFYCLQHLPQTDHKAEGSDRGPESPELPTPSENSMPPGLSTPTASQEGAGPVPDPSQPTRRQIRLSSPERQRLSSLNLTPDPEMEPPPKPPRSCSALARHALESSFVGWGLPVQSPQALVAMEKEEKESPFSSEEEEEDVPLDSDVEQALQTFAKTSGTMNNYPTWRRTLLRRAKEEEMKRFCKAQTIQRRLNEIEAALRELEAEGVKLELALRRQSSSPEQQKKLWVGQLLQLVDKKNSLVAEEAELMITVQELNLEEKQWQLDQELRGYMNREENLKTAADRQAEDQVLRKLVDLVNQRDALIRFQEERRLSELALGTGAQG
UniProt Q92540: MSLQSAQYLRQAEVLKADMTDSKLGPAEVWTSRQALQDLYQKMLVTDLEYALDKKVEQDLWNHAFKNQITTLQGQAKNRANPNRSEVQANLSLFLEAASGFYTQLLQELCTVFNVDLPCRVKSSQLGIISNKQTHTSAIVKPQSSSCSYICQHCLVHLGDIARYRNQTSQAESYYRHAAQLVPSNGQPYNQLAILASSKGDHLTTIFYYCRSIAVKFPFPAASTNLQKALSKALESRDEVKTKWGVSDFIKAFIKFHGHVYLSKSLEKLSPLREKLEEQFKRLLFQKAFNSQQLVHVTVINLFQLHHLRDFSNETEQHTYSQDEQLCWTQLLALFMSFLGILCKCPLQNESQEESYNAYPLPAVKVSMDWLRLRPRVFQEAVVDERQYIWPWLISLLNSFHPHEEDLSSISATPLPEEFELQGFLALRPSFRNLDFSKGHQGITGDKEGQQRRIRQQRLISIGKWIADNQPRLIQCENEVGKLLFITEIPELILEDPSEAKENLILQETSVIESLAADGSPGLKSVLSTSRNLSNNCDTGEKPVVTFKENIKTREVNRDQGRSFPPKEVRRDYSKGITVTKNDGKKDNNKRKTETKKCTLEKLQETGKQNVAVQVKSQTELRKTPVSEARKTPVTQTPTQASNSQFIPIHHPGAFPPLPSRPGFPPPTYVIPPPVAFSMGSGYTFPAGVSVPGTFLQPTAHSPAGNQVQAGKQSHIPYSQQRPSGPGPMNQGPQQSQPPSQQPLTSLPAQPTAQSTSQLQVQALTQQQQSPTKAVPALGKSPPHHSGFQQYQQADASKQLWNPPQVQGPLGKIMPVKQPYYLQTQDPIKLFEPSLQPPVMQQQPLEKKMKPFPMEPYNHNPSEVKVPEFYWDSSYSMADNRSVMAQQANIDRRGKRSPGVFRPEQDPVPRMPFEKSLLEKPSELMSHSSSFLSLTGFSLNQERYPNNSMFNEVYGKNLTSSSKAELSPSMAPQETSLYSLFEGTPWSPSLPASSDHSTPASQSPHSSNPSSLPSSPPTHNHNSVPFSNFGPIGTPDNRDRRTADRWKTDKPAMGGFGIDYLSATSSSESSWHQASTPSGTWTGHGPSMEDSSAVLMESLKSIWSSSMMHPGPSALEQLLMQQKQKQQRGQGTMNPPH
UniProt Q92989: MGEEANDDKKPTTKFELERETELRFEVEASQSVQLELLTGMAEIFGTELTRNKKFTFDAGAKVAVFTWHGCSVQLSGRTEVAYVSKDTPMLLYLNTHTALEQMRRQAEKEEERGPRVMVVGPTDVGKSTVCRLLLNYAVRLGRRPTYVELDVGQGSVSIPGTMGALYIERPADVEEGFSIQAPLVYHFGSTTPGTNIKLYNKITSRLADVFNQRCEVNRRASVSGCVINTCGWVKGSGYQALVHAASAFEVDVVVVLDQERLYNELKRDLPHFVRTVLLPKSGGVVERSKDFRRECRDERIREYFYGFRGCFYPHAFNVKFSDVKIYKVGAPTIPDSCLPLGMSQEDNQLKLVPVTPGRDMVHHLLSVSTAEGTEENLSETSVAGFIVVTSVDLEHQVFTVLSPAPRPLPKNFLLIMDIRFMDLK
UniProt Q8TEL6: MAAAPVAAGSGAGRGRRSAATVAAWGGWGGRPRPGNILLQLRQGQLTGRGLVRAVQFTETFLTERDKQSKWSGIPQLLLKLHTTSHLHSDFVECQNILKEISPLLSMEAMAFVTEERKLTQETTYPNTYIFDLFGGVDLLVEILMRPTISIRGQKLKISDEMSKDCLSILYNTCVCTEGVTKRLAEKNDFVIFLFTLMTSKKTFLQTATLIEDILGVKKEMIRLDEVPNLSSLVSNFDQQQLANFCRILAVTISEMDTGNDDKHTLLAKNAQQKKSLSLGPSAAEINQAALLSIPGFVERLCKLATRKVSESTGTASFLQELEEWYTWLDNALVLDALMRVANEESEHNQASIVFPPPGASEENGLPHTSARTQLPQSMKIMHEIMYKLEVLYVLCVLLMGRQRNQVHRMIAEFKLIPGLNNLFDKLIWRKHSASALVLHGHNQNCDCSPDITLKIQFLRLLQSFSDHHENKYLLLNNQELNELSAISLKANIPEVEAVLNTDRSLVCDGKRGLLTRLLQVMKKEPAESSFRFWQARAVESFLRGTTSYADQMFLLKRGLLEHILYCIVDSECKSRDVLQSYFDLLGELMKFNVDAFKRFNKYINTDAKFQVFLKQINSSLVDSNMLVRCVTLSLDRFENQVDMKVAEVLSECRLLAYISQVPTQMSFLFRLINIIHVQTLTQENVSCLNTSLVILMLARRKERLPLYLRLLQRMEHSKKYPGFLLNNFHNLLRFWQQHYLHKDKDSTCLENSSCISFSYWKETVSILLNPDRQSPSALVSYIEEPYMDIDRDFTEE
UniProt Q969H8: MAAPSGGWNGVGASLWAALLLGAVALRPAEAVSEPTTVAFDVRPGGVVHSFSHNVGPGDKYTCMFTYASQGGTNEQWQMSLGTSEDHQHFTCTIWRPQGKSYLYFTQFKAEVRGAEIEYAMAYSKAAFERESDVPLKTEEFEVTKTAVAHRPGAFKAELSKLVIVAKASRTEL

Compound: Nc1ncnc2c1ncn2[C@@H]1O[C@H](COP(=O)(O)OP(=O)(O)OP(=O)(O)O)[C@@H](O)[C@H]1O [adenosine triphosphate]
Assay: NP40-soluble protein abundance relative to vehicle (solubility fold change) (ratio); higher = more soluble protein in presence of ATP
Summary of the method: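 Jurkat crude lysate prepared with a Dounce homogeniser was treated at eight concentrations spanning 0.1 to 10 mM, 10 min at room temperature then 3 min at 37 °C. Solubilisation with 0.8% NP40 and benzonase and ultracentrifugation preceded TMT labelling of the supernatant for LC-MS/MS. Fold change against the detergent-processed vehicle was determined per replicate from vsn-normalised intensities, across three independent experiments.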

Target	NP40-soluble protein abundance (concentration: 1mM)	NP40-soluble protein abundance (concentration: 2mM)	NP40-soluble protein abundance (concentration: 4mM)	NP40-soluble protein abundance (concentration: 6mM)	NP40-soluble protein abundance (concentration: 8mM)	NP40-soluble protein abundance (concentration: 10mM)
C15orf40 (UniProt Q8WUR7)	0.909 ± 0.086	0.955 ± 0.077	0.959 ± 0.052	0.978 ± 0.1	0.896 ± 0.034	0.9 ± 0.086
UniProt Q8WVK2 and related entries	1.16 ± 0.13	1.11 ± 0.16	1.1 ± 0.16	1.16 ± 0.21	1.07 ± 0.13	1.11 ± 0.19
RNASEH2C (UniProt Q8TDP1)	0.975 ± 0.046	0.966 ± 0.033	0.923 ± 0.018	0.927 ± 0.057	0.923 ± 0.043	0.914 ± 0.054
UniProt Q92766 and related entries	1.07 ± 0.044	1.07 ± 0.043	1.09 ± 0.034	1.16 ± 0.055	1.09 ± 0.054	1.15 ± 0.075
NSUN6 (UniProt Q8TEA1)	1.01 ± 0.037	1.01 ± 0.038	0.997 ± 0.027	0.958 ± 0.091	0.979 ± 0.045	0.992 ± 0.055
GATAD2B (UniProt Q8WXI9)	1.01 ± 0.072	0.997 ± 0.073	1.02 ± 0.081	1.02 ± 0.13	1.02 ± 0.07	1.02 ± 0.076
UniProt Q92572	0.895 ± 0.1	0.945 ± 0.038	0.979 ± 0.013	0.966 ± 0.056	0.938 ± 0.015	0.919 ± 0.028
UniProt Q8TDH9	0.964 ± 0.1	0.89 ± 0.021	0.908 ± 0.081	0.858 ± 0.13	0.923 ± 0.053	0.791 ± 0.12
KBTBD7 (UniProt Q8WVZ9)	1.12 ± 0.045	1.09 ± 0.034	1.11 ± 0.025	1.03 ± 0.1	1.06 ± 0.0024	1.03 ± 0.015
SPPL2B (UniProt Q8TCT7)	0.981 ± 0.045	0.976 ± 0.047	0.962 ± 0.089	0.992 ± 0.059	0.942 ± 0.046	0.984 ± 0.082
ITFG2 (UniProt Q969R8)	1 ± 0.035	0.956 ± 0.048	0.994 ± 0.018	0.926 ± 0.09	0.946 ± 0.035	0.962 ± 0.023
THAP4 (UniProt Q8WY91)	1.05 ± 0.034	0.971 ± 0.029	0.973 ± 0.097	1.02 ± 0.09	0.989 ± 0.051	0.955 ± 0.044
UniProt Q969H6 and related entries	0.899 ± 0.15	1.02 ± 0.22	0.989 ± 0.096	0.8537 ± 0.0039	1.04 ± 0.067	1.08 ± 0.12
UniProt Q8WUY1	1 ± 0.05	1.01 ± 0.041	1.02 ± 0.032	0.963 ± 0.062	1.04 ± 0.04	1.06 ± 0.036
PLEKHO2 (UniProt Q8TD55)	0.949 ± 0.058	0.939 ± 0.062	0.923 ± 0.056	0.986 ± 0.068	0.927 ± 0.024	0.926 ± 0.06
UniProt Q8TCY9	1.04 ± 0.084	0.976 ± 0.086	1.04 ± 0.07	0.998 ± 0.1	0.974 ± 0.071	0.901 ± 0.16
UniProt Q92581-3|Q92581-2	0.952 ± 0.13	1.02 ± 0.079	1.02 ± 0.11	1.03 ± 0.1	0.922 ± 0.1	1.02 ± 0.15
DOCK2 (UniProt Q92608)	1.17 ± 0.12	1.14 ± 0.088	1.14 ± 0.072	1.07 ± 0.089	1.21 ± 0.054	1.13 ± 0.032
TRUB1 (UniProt Q8WWH5)	1 ± 0.099	0.969 ± 0.03	1.02 ± 0.1	0.969 ± 0.051	0.992 ± 0.096	0.959 ± 0.04
UniProt Q8WWK9 and related entries	0.98 ± 0.028	0.9894 ± 0.00078	1.03 ± 0.029	1.08 ± 0.044	1.04 ± 0.032	1.09 ± 0.025
UniProt Q8TDZ2 and related entries	0.99 ± 0.016	0.971 ± 0.023	0.94 ± 0.03	0.955 ± 0.071	0.918 ± 0.011	0.945 ± 0.027
IP6K1 (UniProt Q92551)	1.04 ± 0.16	1 ± 0.066	1.01 ± 0.073	0.999 ± 0.058	0.991 ± 0.062	0.993 ± 0.074
RAB2B (UniProt Q8WUD1)	0.972 ± 0.072	0.997 ± 0.09	0.951 ± 0.051	0.956 ± 0.11	0.961 ± 0.029	0.971 ± 0.077
UniProt Q8WXA9-2	1.37 ± 0.043	1.38 ± 0.053	1.38 ± 0.061	1.44 ± 0.06	1.38 ± 0.083	1.39 ± 0.058
SMG7 (UniProt Q92540)	0.91 ± 0.075	0.961 ± 0.041	0.957 ± 0.071	0.999 ± 0.097	0.959 ± 0.059	0.992 ± 0.048
UniProt Q92989 and related entries	1.06 ± 0.15	1.08 ± 0.13	1.08 ± 0.094	0.97 ± 0.13	1.1 ± 0.056	1.15 ± 0.13
CHMP7 (UniProt Q8WUX9)	0.977 ± 0.055	0.967 ± 0.046	0.933 ± 0.028	0.9584 ± 0.0079	0.91 ± 0.023	0.9232 ± 0.0053
GTF3C2 (UniProt Q8WUA4)	1.05 ± 0.017	1.04 ± 0.078	1.05 ± 0.04	1.03 ± 0.084	1.06 ± 0.044	1.07 ± 0.14
UniProt Q8TEL6 and related entries	1.06 ± 0.15	1.15 ± 0.2	0.976 ± 0.22	1.02 ± 0.21	0.905 ± 0.061	1.02 ± 0.14
UniProt Q969H8	0.985 ± 0.13	1.01 ± 0.095	0.975 ± 0.094	0.969 ± 0.11	0.949 ± 0.054	0.97 ± 0.052

Full records from above:
UniProt Q969H6 and related entries as listed: NP40-soluble protein abundance (concentration: 1mM): 0.899 ± 0.15; NP40-soluble protein abundance (concentration: 2mM): 1.02 ± 0.22; NP40-soluble protein abundance (concentration: 4mM): 0.989 ± 0.096; NP40-soluble protein abundance (concentration: 6mM): 0.8537 ± 0.0039; NP40-soluble protein abundance (concentration: 8mM): 1.04 ± 0.067; NP40-soluble protein abundance (concentration: 10mM): 1.08 ± 0.12
UniProt Q8TDZ2 and related entries as listed: NP40-soluble protein abundance (concentration: 1mM): 0.99 ± 0.016; NP40-soluble protein abundance (concentration: 2mM): 0.971 ± 0.023; NP40-soluble protein abundance (concentration: 4mM): 0.94 ± 0.03; NP40-soluble protein abundance (concentration: 6mM): 0.955 ± 0.071; NP40-soluble protein abundance (concentration: 8mM): 0.918 ± 0.011; NP40-soluble protein abundance (concentration: 10mM): 0.945 ± 0.027
